Measurements from PMC12963305.
No constants are given. Whether binding was seen depends on the method and setting. Some entries that bind do so weakly or less than the wild type.

Amino acid sequences for entries named in this document (tags omitted). A change or cut given only in a name is not applied to a line headed by its entry.
UniProt P70658: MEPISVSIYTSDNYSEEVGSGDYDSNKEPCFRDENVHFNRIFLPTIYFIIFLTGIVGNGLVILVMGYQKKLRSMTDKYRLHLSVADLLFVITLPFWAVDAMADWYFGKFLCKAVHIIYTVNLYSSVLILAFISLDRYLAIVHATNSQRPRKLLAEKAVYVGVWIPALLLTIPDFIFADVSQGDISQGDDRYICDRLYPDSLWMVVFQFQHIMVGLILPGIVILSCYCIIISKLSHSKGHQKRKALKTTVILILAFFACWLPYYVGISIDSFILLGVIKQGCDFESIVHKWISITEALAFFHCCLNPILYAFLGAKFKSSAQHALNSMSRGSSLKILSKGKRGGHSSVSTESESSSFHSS
UniProt P40224: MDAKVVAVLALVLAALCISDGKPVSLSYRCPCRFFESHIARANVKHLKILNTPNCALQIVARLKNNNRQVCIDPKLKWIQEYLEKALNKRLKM

Target: murine chemokine receptor CXCR4 in the MALAR-Y2H receptor vector (mouse) (UniProt P70658)
Assay: two-hybrid; MALAR-Y2H (membrane-anchored ligand and receptor, split ubiquitin) in S. cerevisiae Y2HGold; ligands in pGAD_SP-WBP1_cloning_linker_TMP_Cub_GAL4, receptors in pGBKT7_SP_OST1_cloning_NubG; growth on Leu-/Trp-/His- triple and Leu-/Trp-/Ade-/His- quadruple dropout plates at three densities, quantified as gray value (Fiji/ImageJ)

**Q.** How did the binding turn out when “murine chemokine CXCL12 in the MALAR-Y2H ligand vector (from UniProt P40224 1-93)” was run?
**A.** binds
